Experimental data from article PMC3411106, “Structural analysis of the human SYCE2–TEX12 complex provides molecular insights into synaptonemal complex assembly” (Open Biology, 2012).

Biological target: T1, MBP–SYCE2_(57–88) (human, UniProt Q6PIF2 57-88)
T1 construct: human SYCE2, residues 57–88 (α1 region); Monomer by SEC–MALS; also called α1 region of SYCE2; source: E. coli Rosetta 2 (DE3); co-expressed (pRSFDuet-1), in clarified lysate for the pull-down; individually expressed, purified on amylose resin for SEC–MALS; not shown: MBP, N-terminal, kept
T1 chain (looked up): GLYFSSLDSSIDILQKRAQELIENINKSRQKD
Test: pull-down; amylose pull-down after co-expression in bacteria of MBP-fusion SYCE2 constructs (bait) with His-tagged TEX12 or SYCE2 constructs; lysis in 20 mM Tris pH 8.0, 500 mM KCl, 2 mM DTT; 1 h at 4°C; maltose elution; Coomassie-stained SDS–PAGE

binding | Substance
no binding | N-terminal region of TEX12 (construct of supplementary figure S4) (human) (domain or fragment)
no binding | α1–2 region of TEX12 (construct of supplementary figure S4) (human) (domain or fragment)

No constants are given. Whether binding was seen depends on the method and setting. In cells and extracts the contact can be indirect. Sequences can lack the tags named with a protein.
